Reference: publication doi:10.1101/2023.07.20.549862

Biological target: PbRpt3-mCherry (endogenously C-terminally mCherry-tagged PbRpt3) (Plasmodium berghei)
Assay: affinity purification with mass spectrometry

Substance | binding
phosphoinositide-specific phospholipase C (PI-PLC) (from UniProt A0A509ATV4) (enzyme) | binds
transcription factor TFIID (from UniProt A0A509AKV9) | binds
phosphoinositide-binding protein PH2 (from UniProt A0A509ASP7) | binds
phosphoinositide-binding protein (PBANKA_0618200) (from UniProt A0A509AH92) | binds
CDC73 domain-containing protein (from UniProt A0A509AQS0) | binds
double C2-like domain-containing protein (DOC2) (from UniProt A0A509ASV2) | binds
acetyltransferase ARD1 (from UniProt A0A509AQ99) (enzyme) | binds
acetyltransferase MYST (from UniProt A0A509ALZ7) (enzyme) | binds
calcium dependent protein kinase 7 (CDPK7) (from UniProt A0A509AJV2) (enzyme) | binds
DNA directed RNA polymerase 3 largest subunit (from UniProt A0A509AXN1) | binds

These are yes or no findings as the source states them, for the method shown. Binding seen in cells or lysates may run through a third protein. These calls come from enrichment with a bait or labelling near it, and not all partners need be listed.
